The supplement of paper PMC11732987, “Enantioselective OTUD7B fragment discovery through chemoproteomics screening and high-throughput optimisation” (Communications Chemistry, 2025)
The other results are listed elsewhere or left out. The data scatter; read single values as rough.

System: T1, QSER1 C1121
T1 sequence (whole entry): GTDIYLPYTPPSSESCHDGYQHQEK
Assay: log2 mean competition ratio of IA-DTB cysteine labelling (DMSO/compound) (log2 ratio); higher = stronger cysteine engagement by compound
Settings: 50 µM; treatment time: 4 h; cell line lysate: HEK293T
Experimental: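 IA-DTB competitive cysteine chemoproteomics in HEK293T RIPA lysate. Lysates were treated with compound 29 or 30 at 50 or 200 µM for 4 h, then IA-DTB (500 µM, 1 h), trypsin-digested, NeutrAvidin-enriched and analysed by diaPASEF. Competition ratio = intensity DMSO / intensity compound (n=4 treated, n=64 DMSO); binding: mean log2 CR ≥ 1 and p ≤ 0.05 plus QC filters. Target is the cysteine site.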

Row | Structure (SMILES) | log2 mean competition ratio
1 | O=C(CCl)N[C@@H]1CCCc2ccccc21 | -0.216
2 | O=C(CCl)N[C@H]1CCCc2ccccc21 | -0.0187

Same assay, conditions: 200 µM; treatment time: 4 h; cell line lysate: HEK293T

Row | Structure (SMILES) | log2 mean competition ratio
3 | O=C(CCl)N[C@@H]1CCCc2ccccc21 | 0.496
4 | O=C(CCl)N[C@H]1CCCc2ccccc21 | 0.366
